In the assay the target is T1, p120-catenin (p120ctn), endogenous (human) (UniProt O60716).
T1 sequence (looked up): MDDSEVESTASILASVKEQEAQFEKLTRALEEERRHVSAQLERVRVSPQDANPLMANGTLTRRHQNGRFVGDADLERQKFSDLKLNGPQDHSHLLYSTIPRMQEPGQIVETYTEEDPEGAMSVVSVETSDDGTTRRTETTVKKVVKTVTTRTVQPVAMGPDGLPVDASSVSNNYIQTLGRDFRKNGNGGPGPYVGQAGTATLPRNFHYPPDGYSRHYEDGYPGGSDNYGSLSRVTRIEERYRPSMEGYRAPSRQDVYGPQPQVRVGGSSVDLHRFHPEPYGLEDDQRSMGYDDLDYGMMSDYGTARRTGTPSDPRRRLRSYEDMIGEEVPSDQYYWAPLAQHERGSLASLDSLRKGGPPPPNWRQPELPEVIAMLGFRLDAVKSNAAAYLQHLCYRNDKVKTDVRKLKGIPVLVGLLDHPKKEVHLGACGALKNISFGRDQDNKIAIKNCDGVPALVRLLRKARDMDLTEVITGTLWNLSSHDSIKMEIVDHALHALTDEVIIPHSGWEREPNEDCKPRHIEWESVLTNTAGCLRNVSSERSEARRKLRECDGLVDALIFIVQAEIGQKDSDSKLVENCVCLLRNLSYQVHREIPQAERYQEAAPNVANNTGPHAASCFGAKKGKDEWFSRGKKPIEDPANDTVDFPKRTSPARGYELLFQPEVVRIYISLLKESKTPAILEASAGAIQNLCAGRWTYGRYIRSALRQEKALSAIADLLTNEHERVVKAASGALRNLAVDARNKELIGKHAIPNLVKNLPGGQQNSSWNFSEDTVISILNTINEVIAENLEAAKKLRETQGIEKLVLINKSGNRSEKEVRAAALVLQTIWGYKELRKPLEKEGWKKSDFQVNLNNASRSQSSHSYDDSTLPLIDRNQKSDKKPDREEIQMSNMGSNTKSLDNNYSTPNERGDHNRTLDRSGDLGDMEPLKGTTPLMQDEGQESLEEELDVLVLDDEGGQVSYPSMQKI
Description: co-immunoprecipitation from confluent EC extracts.

Our source for the binding values is patent US20100150879A1.

These are yes or no findings as the source states them, for the method shown. In cells and extracts the contact can be indirect. Some results given as binding are weak or reduced against the parent protein; the word gives no strength.

B1: VE-cadherin, endogenous in hdMVEC (receptor, human, UniProt P33151 48-784, looked up)
chain: DWIWNQMHIDEEKNTSLPHHVGKIKSSVSRKNAKYLLKGEYVGKVFRVDAETGDVFAIERLDRENISEYHLTAVIVDKDTGENLETPSSFTIKVHDVNDNWPVFTHRLFNASVPESSAVGTSVISVTAVDADDPTVGDHASVMYQILKGKEYFAIDNSGRIITITKSLDREKQARYEIVVEARDAQGLRGDSGTATVLVTLQDINDNFPFFTQTKYTFVVPEDTRVGTSVGSLFVEDPDEPQNRMTKYSILRGDYQDAFTIETNPAHNEGIIKPMKPLDYEYIQQYSFIVEATDPTIDLRYMSPPAGNRAQVIINITDVDEPPIFQQPFYHFQLKENQKKPLIGTVLAMDPDAARHSIGYSIRRTSDKGQFFRVTKKGDIYNEKELDREVYPWYNLTVEAKELDSTGTPTGKESIVQVHIEVLDENDNAPEFAKPYQPKVCENAVHGQLVLQISAIDKDITPRNVKFKFILNTENNFTLTDNHDNTANITVKYGQFDREHTKVHFLPVVISDNGMPSRTGTSTLTVAVCKCNEQGEFTFCEDMAAQVGVSIQAVVAILLCILTITVITLLIFLRRRLRKQARAHGKSVPEIHEQLVTYDEEGGGEMDTTSYDVSVLNSVRRGGAKPPRPALDARPSLYAQVQKPPRHAPGAHGGPGEMAAMIEVKKDEADHDGDGPPYDTLHIYGYEGSESIAESLSSLGTDSSDSDVDYDFLNDWGPRFKMLAELYGSDPREELLY
On to B1, for which the binding entry is on record as “binds”.
